The list shows a part of the results. Many values rest on one well or one pass, so single values are uncertain.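 Imaging used 1,536-well plates; nuclei positive for cleaved PARP by antibody were divided by total DNA-stained nuclei to yield the apoptosis fraction. Doses for screening kept most cells viable, and cell lines differ markedly in resting and induced cleaved-PARP levels.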
Key:
Assay in all cases: cleaved PARP positive nuclei fraction relative to DMSO control; melanoma cells; higher = more apoptosis
Details in all cases: library dose: low library concentration; 72 h
MeWo = system: MeWo
RPMI7951 = system: RPMI7951
RVH-421 = system: RVH-421
SkMel28 = system: SkMel28
SkMel2 = system: SkMel2
SkMel30 = system: SkMel30
SkMel5 = system: SkMel5
UACC257 = system: UACC257
UACC62 = system: UACC62
WM115 = system: WM115
WM1716 = system: WM1716
WM1745 = system: WM1745
WM3526 = system: WM3526
WM3619 = system: WM3619
WM451Lu = system: WM451Lu

| Compound | cleaved PARP positive nuclei fraction (MeWo) | cleaved PARP positive nuclei fraction (RPMI7951) | cleaved PARP positive nuclei fraction (RVH-421) | cleaved PARP positive nuclei fraction (SkMel28) | cleaved PARP positive nuclei fraction (SkMel2) | cleaved PARP positive nuclei fraction (SkMel30) | cleaved PARP positive nuclei fraction (SkMel5) | cleaved PARP positive nuclei fraction (UACC257) | cleaved PARP positive nuclei fraction (UACC62) | cleaved PARP positive nuclei fraction (WM115) | cleaved PARP positive nuclei fraction (WM1716) | cleaved PARP positive nuclei fraction (WM1745) | cleaved PARP positive nuclei fraction (WM3526) | cleaved PARP positive nuclei fraction (WM3619) | cleaved PARP positive nuclei fraction (WM451Lu) |
| --- | --- | --- | --- | --- | --- | --- | --- | --- | --- | --- | --- | --- | --- | --- | --- |
| Nc1nc(F)nc2c1ncn2[C@@H]1O[C@H](CO)[C@@H](O)[C@@H]1O [fludarabine] + Oc1nc(-c2ccc(C(F)(F)F)cc2)nc2c1CSCC2 [XAV939] (first compound 0.2 µM, partner dose 2 µM) | 200% | 160% | 72.9% | 81.9% | 1330% | 309% | 151% | 390% | 79.4% | 40.6% | 228% | 112% | 607% | 170% | 613% |
| CO[C@H]1C[C@@H]2CC[C@@H](C)[C@@](O)(O2)C(=O)C(=O)N2CCCC[C@H]2C(=O)O[C@H]([C@H](C)C[C@@H]2CC[C@@H](OCCO)[C@H](OC)C2)CC(=O)[C@H](C)/C=C(\C)[C@@H](O)[C@@H](OC)C(=O)[C@H](C)C[C@H](C)/C=C/C=C/C=C/1C [everolimus] + CN(C)S(=O)(=O)c1ccc2c(c1)/C(=C/c1cc3c([nH]1)CCCC3)C(=O)N2 [SU6656] (first compound 0.02 µM, partner dose 0.4 µM) | 74.1% | 189% | 88.3% | 156% | – | 99.5% | 314% | 158% | 410% | 250% | 65.7% | 94.9% | 77.3% | 85.7% | 243% |
| CCCS(=O)(=O)Nc1ccc(F)c(C(=O)c2c[nH]c3ncc(Cl)cc23)c1F + NC(=O)Nc1cc(-c2cccc(F)c2)sc1C(=O)N[C@H]1CCCNC1 [AZD7762] (first compound 0.08 µM, partner dose 0.02 µM) | 87.7% | 107% | 87.4% | 93.3% | – | 49.6% | 104% | 90.5% | 445% | 98.6% | 116% | 80.9% | 96.6% | 193% | 81.2% |
| CC(C)C[C@H](NC(=O)[C@H](Cc1ccccc1)NC(=O)c1cnccn1)B(O)O [Bortezomib] + CCN(CC)CCCCNc1ncc2cc(-c3cc(OC)cc(OC)c3)c(NC(=O)NC(C)(C)C)nc2n1 [PD173074] (first compound 0.001 µM, partner dose 0.1 µM) | 44.5% | 50.5% | 186% | 59.5% | – | 49.2% | 72% | 71.4% | 119% | 154% | 490% | 117% | 51% | 640% | 156% |
| Cc1cc(Nc2cc(N3CCN(C)CC3)nc(/C=C/c3ccccc3)n2)n[nH]1 + Cn1c(Nc2ccc(C(F)(F)F)cc2)nc2cc(Oc3ccnc(-c4ncc(C(F)(F)F)[nH]4)c3)ccc21 [CHIR265] (first compound 0.04 µM, partner dose 0.08 µM) | 189% | 397% | 135% | 139% | – | 70.2% | – | – | 75.1% | 827% | 269% | 118% | 281% | 123% | 365% |
| O=C(O)c1ccc2c(c1)nc(Nc1cccc(Cl)c1)c1ccncc12 + Cn1cc(/C=C2\C(=O)Nc3cccnc32)c2ccccc21 [GW441756] (first compound 0.4 µM, partner dose 0.4 µM) | 164% | 66.6% | 62.5% | 69.2% | – | 78.1% | 90.1% | 115% | 109% | 146% | 95% | 88.3% | 42.7% | 88.7% | 47.1% |
| Nc1ccn([C@@H]2O[C@H](CO)[C@@H](O)C2(F)F)c(=O)n1 [gemcitabine] + O=C(Nc1ccccc1)c1cc([N+](=O)[O-])ccc1Cl [GW9662] (first compound 0.0004 µM, partner dose 2 µM) | 33.6% | 91.3% | 76.6% | 26.8% | – | 136% | 78.1% | 153% | 105% | 111% | 34% | 116% | 90.1% | 129% | 62.8% |
| C[C@@H](Oc1cc(-c2cnn(C3CCNCC3)c2)cnc1N)c1c(Cl)ccc(F)c1Cl [Crizotinib] + C=CCNC1=C2C[C@@H](C)C[C@H](OC)[C@H](O)[C@@H](C)/C=C(\C)[C@H](OC(N)=O)[C@@H](OC)/C=C\C=C(/C)C(=O)NC(=CC1=O)C2=O [Tanespimycin] (first compound 0.2 µM, partner dose 0.002 µM) | 65.5% | 95% | 167% | 154% | 93.2% | 48.3% | – | – | 60.4% | 80% | 35.9% | 94.3% | 137% | 102% | 44.3% |
| Nc1ccn([C@@H]2O[C@H](CO)[C@@H](O)C2(F)F)c(=O)n1 [gemcitabine] + O=C(CCCCCCC(=O)Nc1ccccc1)NO [vorinostat] (first compound 0.0004 µM, partner dose 0.08 µM) | 48.3% | 195% | 35% | 99.1% | – | 54.9% | 136% | 27.3% | 65.8% | 26.2% | 167% | 147% | 54.7% | 155% | 68.5% |
| Cc1cc(Nc2cc(N3CCN(C)CC3)nc(/C=C/c3ccccc3)n2)n[nH]1 + CN(NC(=O)CC(=O)NN(C)C(=S)c1ccccc1)C(=S)c1ccccc1 [STA4783] (first compound 0.04 µM, partner dose 0.006 µM) | 174% | 42.4% | 54.6% | 61.2% | – | 66.8% | 236% | 208% | 59.8% | 167% | 176% | 181% | 63.2% | 128% | 110% |
| CO[C@H]1C[C@@H]2CC[C@@H](C)[C@@](O)(O2)C(=O)C(=O)N2CCCC[C@H]2C(=O)O[C@H]([C@H](C)C[C@@H]2CC[C@@H](OCCO)[C@H](OC)C2)CC(=O)[C@H](C)/C=C(\C)[C@@H](O)[C@@H](OC)C(=O)[C@H](C)C[C@H](C)/C=C/C=C/C=C/1C [everolimus] + OCCn1cc(-c2cnc3nnn(Cc4ccc5ncccc5c4)c3n2)cn1 [PF04217903] (first compound 0.02 µM, partner dose 1 µM) | 130% | 63.6% | 95% | 342% | – | 630% | 139% | 178% | 396% | 62.3% | 134% | 286% | 58.3% | 148% | 62.4% |
| CNC(=O)c1cc(Oc2ccc(NC(=O)Nc3ccc(Cl)c(C(F)(F)F)c3)cc2)ccn1 [sorafenib] + CC(C)CCN1c2nc(Nc3cc(F)c(O)c(F)c3)ncc2N(C)C(=O)C1C [BID1870] (first compound 0.4 µM, partner dose 0.2 µM) | 94% | 473% | 132% | 151% | – | 145% | 74.6% | 34.6% | 134% | 105% | 191% | 186% | 148% | 89.7% | 198% |
| C[C@@H](Oc1cc(-c2cnn(C3CCNCC3)c2)cnc1N)c1c(Cl)ccc(F)c1Cl [Crizotinib] + COc1cc(Nc2ncc(F)c(Nc3ccc4c(n3)NC(=O)C(C)(C)O4)n2)cc(OC)c1OC [Tamatinib] (first compound 0.2 µM, partner dose 0.4 µM) | 84% | 71.5% | 80.3% | 102% | – | 74.8% | 39.8% | 179% | 230% | 50.6% | 75% | 145% | 137% | 89.3% | 57.8% |
| C[C@@H](Oc1cc(-c2cnn(C3CCNCC3)c2)cnc1N)c1c(Cl)ccc(F)c1Cl [Crizotinib] + Nc1nc(F)nc2c1ncn2[C@@H]1O[C@H](CO)[C@@H](O)[C@@H]1O [fludarabine] (first compound 0.2 µM, partner dose 0.2 µM) | 462% | 87% | 59.4% | 47% | 335% | 2900% | – | – | 161% | 161% | 78.2% | 80.3% | 706% | 68.4% | 76.4% |
| CS(=O)(=O)CCNCc1ccc(-c2ccc3ncnc(Nc4ccc(OCc5cccc(F)c5)c(Cl)c4)c3c2)o1 [lapatinib] + Nc1cccc2c1CN(C1CCC(=O)NC1=O)C2=O [lenalidomide] (first compound 0.8 µM, partner dose 1 µM) | 85.5% | 254% | 117% | 41.3% | 49.6% | 90.4% | – | – | 66% | 98.2% | 42.6% | 115% | 51.9% | 92.4% | 82% |
| CCCS(=O)(=O)Nc1ccc(F)c(C(=O)c2c[nH]c3ncc(Cl)cc23)c1F + OCc1c[nH]c2ccccc12 [Indole-3-carbinol] (first compound 0.08 µM, partner dose 0.8 µM) | 66.1% | 44.1% | 83.3% | 164% | 94.5% | 91.5% | – | – | 170% | 92.2% | 30.7% | 88% | 86% | 108% | 177% |
| CC(C)C[C@H](NC(=O)[C@H](Cc1ccccc1)NC(=O)c1cnccn1)B(O)O [Bortezomib] + Cn1cncc1[C@@](N)(c1ccc(Cl)cc1)c1ccc2c(c1)c(-c1cccc(Cl)c1)cc(=O)n2C [tipifarnib] (first compound 0.001 µM, partner dose 0.01 µM) | 176% | 105% | 300% | 71.2% | – | 74.2% | 70.2% | 104% | 298% | 77.4% | 529% | 170% | 161% | 439% | 244% |
| CO[C@H]1C[C@@H]2CC[C@@H](C)[C@@](O)(O2)C(=O)C(=O)N2CCCC[C@H]2C(=O)O[C@H]([C@H](C)C[C@@H]2CC[C@@H](OCCO)[C@H](OC)C2)CC(=O)[C@H](C)/C=C(\C)[C@@H](O)[C@@H](OC)C(=O)[C@H](C)C[C@H](C)/C=C/C=C/C=C/1C [everolimus] + CCc1ccc(CCOc2ccc(CC3SC(=O)NC3=O)cc2)nc1 [pioglitazone] (first compound 0.02 µM, partner dose 2 µM) | 38% | 74.2% | 191% | 232% | – | 100% | 64.2% | 152% | 221% | 98.9% | 130% | 114% | 101% | 106% | 42.6% |

Reformatted bar-delimited: part of the list above.
Compound | cleaved PARP positive nuclei fraction (MeWo) | cleaved PARP positive nuclei fraction (RPMI7951) | cleaved PARP positive nuclei fraction (RVH-421) | cleaved PARP positive nuclei fraction (SkMel28) | cleaved PARP positive nuclei fraction (SkMel2) | cleaved PARP positive nuclei fraction (SkMel30) | cleaved PARP positive nuclei fraction (SkMel5) | cleaved PARP positive nuclei fraction (UACC257) | cleaved PARP positive nuclei fraction (UACC62) | cleaved PARP positive nuclei fraction (WM115) | cleaved PARP positive nuclei fraction (WM1716) | cleaved PARP positive nuclei fraction (WM1745) | cleaved PARP positive nuclei fraction (WM3526) | cleaved PARP positive nuclei fraction (WM3619) | cleaved PARP positive nuclei fraction (WM451Lu)
CCCS(=O)(=O)Nc1ccc(F)c(C(=O)c2c[nH]c3ncc(Cl)cc23)c1F + NC(=O)Nc1cc(-c2cccc(F)c2)sc1C(=O)N[C@H]1CCCNC1 [AZD7762] (first compound 0.08 µM, partner dose 0.02 µM) | 87.7% | 107% | 87.4% | 93.3% | – | 49.6% | 104% | 90.5% | 445% | 98.6% | 116% | 80.9% | 96.6% | 193% | 81.2%
CC(C)C[C@H](NC(=O)[C@H](Cc1ccccc1)NC(=O)c1cnccn1)B(O)O [Bortezomib] + CCN(CC)CCCCNc1ncc2cc(-c3cc(OC)cc(OC)c3)c(NC(=O)NC(C)(C)C)nc2n1 [PD173074] (first compound 0.001 µM, partner dose 0.1 µM) | 44.5% | 50.5% | 186% | 59.5% | – | 49.2% | 72% | 71.4% | 119% | 154% | 490% | 117% | 51% | 640% | 156%
Cc1cc(Nc2cc(N3CCN(C)CC3)nc(/C=C/c3ccccc3)n2)n[nH]1 + Cn1c(Nc2ccc(C(F)(F)F)cc2)nc2cc(Oc3ccnc(-c4ncc(C(F)(F)F)[nH]4)c3)ccc21 [CHIR265] (first compound 0.04 µM, partner dose 0.08 µM) | 189% | 397% | 135% | 139% | – | 70.2% | – | – | 75.1% | 827% | 269% | 118% | 281% | 123% | 365%
O=C(O)c1ccc2c(c1)nc(Nc1cccc(Cl)c1)c1ccncc12 + Cn1cc(/C=C2\C(=O)Nc3cccnc32)c2ccccc21 [GW441756] (first compound 0.4 µM, partner dose 0.4 µM) | 164% | 66.6% | 62.5% | 69.2% | – | 78.1% | 90.1% | 115% | 109% | 146% | 95% | 88.3% | 42.7% | 88.7% | 47.1%
Nc1ccn([C@@H]2O[C@H](CO)[C@@H](O)C2(F)F)c(=O)n1 [gemcitabine] + O=C(Nc1ccccc1)c1cc([N+](=O)[O-])ccc1Cl [GW9662] (first compound 0.0004 µM, partner dose 2 µM) | 33.6% | 91.3% | 76.6% | 26.8% | – | 136% | 78.1% | 153% | 105% | 111% | 34% | 116% | 90.1% | 129% | 62.8%
